Test results from paper PMC9389162.
Results are given in words; binding and its absence hold for the method and conditions named. In cells and extracts the contact can be indirect. Some entries that bind do so weakly or less than the wild type. One block for each molecule: values may come before it.

By UniProt entry, the sequences of proteins in these tests, tags left out.
UniProt P30874: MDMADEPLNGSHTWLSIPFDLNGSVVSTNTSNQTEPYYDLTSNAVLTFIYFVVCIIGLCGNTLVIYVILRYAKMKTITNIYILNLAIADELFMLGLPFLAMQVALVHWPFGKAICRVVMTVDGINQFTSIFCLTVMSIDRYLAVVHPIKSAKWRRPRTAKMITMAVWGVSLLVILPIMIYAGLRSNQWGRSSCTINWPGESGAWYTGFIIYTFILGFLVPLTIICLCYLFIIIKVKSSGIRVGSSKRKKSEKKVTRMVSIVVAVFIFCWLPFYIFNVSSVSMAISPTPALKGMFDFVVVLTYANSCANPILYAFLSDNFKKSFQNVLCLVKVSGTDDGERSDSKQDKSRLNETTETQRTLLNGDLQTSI
UniProt P35346: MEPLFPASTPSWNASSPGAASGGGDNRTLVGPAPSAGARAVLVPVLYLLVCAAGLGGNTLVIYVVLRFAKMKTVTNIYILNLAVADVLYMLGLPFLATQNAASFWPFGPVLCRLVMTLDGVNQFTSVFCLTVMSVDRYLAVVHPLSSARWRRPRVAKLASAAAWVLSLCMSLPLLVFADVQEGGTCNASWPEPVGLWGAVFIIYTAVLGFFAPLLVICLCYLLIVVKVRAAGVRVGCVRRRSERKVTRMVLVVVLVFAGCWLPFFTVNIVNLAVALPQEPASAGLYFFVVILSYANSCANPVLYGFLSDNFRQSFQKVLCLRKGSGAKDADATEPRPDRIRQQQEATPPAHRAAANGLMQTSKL
UniProt P30680: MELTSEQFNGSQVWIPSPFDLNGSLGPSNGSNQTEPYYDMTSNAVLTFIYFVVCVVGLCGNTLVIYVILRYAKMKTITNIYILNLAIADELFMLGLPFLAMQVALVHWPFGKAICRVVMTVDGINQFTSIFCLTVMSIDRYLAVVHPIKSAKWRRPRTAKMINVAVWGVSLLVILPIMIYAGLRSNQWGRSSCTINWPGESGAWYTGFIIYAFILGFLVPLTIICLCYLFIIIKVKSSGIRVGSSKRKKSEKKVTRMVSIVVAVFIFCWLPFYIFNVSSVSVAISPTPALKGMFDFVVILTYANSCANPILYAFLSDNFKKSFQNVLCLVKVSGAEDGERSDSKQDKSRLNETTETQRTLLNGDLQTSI

Key:
[1] = molecular target: human somatostatin receptor type 2 (SST2), HA-tagged and SNAP-tagged copies co-expressed (human) (UniProt P30874); assay: proximity ligation; in situ PLA (Duolink) on fixed, permeabilised GH3, A7 and M2 cells transiently co-transfected with HA-SST2 and SNAP-SST2; mouse anti-HA and rabbit anti-SNAP; amplification 2 h; basal conditions
[2] = molecular target: somatostatin receptor type 5 (SST5), endogenous in human melanoma A7 and M2 cells (human (endogenous in A7 and M2)) (UniProt P35346); assay: proximity ligation; in situ PLA (Duolink) on fixed, permeabilised GH3, A7 (FLNA-expressing) and M2 (FLNA-lacking) cells, endogenous receptors; rabbit anti-SST2 and mouse anti-SST5; basal or 100 nM octreotide or pasireotide for 5 min; amplification 18 h; PLA puncta per cell counted
[3] = molecular target: T1, somatostatin receptor type 5 (SST5), endogenous in rat GH3 cells (rat (endogenous in GH3)) (UniProt P30938); assay: as above
T1 sequence: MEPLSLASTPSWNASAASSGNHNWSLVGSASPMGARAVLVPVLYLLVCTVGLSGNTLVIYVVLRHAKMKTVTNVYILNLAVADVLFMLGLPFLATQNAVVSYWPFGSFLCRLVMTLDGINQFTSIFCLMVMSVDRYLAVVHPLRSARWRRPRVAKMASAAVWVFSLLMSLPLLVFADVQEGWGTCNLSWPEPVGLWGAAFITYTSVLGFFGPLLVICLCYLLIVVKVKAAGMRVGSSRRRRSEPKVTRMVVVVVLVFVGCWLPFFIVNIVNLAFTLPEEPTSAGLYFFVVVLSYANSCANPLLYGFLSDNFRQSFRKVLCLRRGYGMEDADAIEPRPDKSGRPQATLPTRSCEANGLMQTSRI

[4] = molecular target: T1, somatostatin receptor type 5 (SST5), endogenous in rat GH3 cells (rat (endogenous in GH3)); assay: proximity ligation; in situ PLA (Duolink) on fixed, permeabilised GH3, A7 and M2 cells, endogenous SST5; rabbit and mouse anti-SST5 antibodies; amplification 18 h

binding [1]: binds
Molecule: human somatostatin receptor type 2 (SST2), HA-tagged and SNAP-tagged copies co-expressed (from UniProt P30874 1-369)

binding [2]: binds
Molecule: somatostatin receptor type 2 (SST2), endogenous in human melanoma A7 and M2 cells (from UniProt P30874 1-369)

binding [3]: binds
Molecule: somatostatin receptor type 2 (SST2), endogenous in rat GH3 cells (from UniProt P30680 1-369)

binding [4]: binds
B1: somatostatin receptor type 5 (SST5), endogenous in rat GH3 cells (receptor, UniProt P30938 1-363)
chain: T1 sequence
